Measured values reported in the supplement of paper PMC10849652.
This is one part of the list.

Chains of the proteins cited; added tags and fusions are not shown. Lines headed by an entry give the natural chain unless they say otherwise; changes in a name come on top.
UniProt P13489: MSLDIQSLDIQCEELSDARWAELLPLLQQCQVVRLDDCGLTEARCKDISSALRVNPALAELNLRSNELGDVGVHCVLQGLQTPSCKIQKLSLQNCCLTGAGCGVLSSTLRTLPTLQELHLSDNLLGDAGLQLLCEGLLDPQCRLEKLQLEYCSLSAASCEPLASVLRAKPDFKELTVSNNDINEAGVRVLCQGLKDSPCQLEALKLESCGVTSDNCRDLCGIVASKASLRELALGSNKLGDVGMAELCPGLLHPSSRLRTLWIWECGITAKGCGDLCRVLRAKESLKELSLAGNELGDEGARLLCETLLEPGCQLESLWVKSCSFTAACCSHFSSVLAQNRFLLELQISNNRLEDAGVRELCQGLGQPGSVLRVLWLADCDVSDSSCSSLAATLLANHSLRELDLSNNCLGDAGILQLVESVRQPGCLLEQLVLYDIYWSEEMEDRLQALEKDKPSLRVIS
UniProt P04843: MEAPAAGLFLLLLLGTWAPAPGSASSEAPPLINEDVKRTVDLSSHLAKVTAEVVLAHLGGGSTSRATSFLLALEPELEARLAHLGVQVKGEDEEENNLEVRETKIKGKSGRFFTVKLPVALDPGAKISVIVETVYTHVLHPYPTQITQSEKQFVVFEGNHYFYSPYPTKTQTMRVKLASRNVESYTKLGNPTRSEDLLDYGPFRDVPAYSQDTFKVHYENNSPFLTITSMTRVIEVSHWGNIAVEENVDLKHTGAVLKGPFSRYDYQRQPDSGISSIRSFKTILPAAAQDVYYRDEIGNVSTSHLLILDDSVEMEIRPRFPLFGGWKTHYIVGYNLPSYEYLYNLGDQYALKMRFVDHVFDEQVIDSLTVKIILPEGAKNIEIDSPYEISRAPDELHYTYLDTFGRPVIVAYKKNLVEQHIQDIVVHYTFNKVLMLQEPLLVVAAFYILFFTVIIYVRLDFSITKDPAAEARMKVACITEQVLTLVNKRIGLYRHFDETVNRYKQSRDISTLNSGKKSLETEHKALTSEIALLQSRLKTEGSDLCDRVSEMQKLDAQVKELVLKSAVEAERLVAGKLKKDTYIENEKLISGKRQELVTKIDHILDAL
UniProt P78346: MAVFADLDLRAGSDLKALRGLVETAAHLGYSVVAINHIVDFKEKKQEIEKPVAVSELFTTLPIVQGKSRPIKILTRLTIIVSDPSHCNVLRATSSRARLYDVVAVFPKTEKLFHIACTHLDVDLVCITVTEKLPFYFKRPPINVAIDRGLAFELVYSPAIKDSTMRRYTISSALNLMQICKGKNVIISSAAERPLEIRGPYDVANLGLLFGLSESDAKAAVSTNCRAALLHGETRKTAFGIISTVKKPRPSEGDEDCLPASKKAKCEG
UniProt P10155: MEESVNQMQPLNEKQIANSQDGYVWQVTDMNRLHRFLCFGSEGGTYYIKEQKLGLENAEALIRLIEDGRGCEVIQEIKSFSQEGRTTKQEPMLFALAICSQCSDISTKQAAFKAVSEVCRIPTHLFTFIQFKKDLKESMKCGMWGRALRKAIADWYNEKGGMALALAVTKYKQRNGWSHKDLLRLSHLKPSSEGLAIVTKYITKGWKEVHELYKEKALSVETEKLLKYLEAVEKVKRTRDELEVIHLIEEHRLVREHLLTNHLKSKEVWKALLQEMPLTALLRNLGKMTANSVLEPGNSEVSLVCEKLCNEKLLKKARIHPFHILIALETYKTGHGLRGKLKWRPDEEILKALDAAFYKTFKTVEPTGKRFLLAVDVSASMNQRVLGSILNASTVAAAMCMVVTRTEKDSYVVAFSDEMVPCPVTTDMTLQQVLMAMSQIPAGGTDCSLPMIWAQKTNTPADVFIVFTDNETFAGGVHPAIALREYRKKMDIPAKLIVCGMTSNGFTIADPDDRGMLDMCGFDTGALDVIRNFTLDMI
UniProt Q7LG56, whole entry, looked up: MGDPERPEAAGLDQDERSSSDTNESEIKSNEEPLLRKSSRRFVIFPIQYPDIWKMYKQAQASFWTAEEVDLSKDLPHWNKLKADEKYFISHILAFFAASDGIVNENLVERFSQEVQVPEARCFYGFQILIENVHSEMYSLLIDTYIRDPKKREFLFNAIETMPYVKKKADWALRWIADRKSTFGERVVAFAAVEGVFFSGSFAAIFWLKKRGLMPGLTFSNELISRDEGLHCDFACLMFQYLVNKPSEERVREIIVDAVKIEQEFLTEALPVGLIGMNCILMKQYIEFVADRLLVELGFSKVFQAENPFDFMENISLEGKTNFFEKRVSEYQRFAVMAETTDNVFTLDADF
UniProt O75695: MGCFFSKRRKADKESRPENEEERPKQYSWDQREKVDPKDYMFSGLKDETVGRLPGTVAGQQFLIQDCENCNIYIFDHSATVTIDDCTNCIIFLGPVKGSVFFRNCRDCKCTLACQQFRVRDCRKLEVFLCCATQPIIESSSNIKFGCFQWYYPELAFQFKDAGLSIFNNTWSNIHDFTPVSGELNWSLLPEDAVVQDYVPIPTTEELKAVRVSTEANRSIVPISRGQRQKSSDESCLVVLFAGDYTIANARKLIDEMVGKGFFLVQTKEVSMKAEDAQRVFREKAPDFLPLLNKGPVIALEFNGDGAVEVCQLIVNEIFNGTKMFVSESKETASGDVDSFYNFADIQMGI
UniProt O75818: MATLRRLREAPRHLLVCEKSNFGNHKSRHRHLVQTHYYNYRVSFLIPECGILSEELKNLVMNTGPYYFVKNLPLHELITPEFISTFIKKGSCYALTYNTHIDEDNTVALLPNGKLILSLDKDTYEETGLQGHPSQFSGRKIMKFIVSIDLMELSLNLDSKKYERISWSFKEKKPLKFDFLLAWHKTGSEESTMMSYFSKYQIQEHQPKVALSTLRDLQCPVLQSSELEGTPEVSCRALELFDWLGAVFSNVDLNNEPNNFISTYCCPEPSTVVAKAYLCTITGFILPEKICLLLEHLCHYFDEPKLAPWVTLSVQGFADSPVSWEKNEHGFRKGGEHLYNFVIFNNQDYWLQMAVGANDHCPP
UniProt Q96BH1: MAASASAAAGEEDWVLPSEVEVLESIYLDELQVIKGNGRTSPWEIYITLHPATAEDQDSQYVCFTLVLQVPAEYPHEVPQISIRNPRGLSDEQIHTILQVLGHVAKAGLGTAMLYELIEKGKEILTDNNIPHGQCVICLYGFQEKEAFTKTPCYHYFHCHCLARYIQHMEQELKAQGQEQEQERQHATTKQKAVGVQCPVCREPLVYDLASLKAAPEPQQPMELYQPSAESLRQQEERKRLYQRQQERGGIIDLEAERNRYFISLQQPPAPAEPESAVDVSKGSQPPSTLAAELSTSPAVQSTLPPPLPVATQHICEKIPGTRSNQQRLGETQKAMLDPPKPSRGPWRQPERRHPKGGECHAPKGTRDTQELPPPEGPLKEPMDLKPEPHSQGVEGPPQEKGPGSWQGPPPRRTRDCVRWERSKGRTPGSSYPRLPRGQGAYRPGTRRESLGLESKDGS
UniProt Q86WX3: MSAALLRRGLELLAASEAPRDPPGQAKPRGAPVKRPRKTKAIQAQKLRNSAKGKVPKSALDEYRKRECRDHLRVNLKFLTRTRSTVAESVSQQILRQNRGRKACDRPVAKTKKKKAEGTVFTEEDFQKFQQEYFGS
UniProt Q9P2E9: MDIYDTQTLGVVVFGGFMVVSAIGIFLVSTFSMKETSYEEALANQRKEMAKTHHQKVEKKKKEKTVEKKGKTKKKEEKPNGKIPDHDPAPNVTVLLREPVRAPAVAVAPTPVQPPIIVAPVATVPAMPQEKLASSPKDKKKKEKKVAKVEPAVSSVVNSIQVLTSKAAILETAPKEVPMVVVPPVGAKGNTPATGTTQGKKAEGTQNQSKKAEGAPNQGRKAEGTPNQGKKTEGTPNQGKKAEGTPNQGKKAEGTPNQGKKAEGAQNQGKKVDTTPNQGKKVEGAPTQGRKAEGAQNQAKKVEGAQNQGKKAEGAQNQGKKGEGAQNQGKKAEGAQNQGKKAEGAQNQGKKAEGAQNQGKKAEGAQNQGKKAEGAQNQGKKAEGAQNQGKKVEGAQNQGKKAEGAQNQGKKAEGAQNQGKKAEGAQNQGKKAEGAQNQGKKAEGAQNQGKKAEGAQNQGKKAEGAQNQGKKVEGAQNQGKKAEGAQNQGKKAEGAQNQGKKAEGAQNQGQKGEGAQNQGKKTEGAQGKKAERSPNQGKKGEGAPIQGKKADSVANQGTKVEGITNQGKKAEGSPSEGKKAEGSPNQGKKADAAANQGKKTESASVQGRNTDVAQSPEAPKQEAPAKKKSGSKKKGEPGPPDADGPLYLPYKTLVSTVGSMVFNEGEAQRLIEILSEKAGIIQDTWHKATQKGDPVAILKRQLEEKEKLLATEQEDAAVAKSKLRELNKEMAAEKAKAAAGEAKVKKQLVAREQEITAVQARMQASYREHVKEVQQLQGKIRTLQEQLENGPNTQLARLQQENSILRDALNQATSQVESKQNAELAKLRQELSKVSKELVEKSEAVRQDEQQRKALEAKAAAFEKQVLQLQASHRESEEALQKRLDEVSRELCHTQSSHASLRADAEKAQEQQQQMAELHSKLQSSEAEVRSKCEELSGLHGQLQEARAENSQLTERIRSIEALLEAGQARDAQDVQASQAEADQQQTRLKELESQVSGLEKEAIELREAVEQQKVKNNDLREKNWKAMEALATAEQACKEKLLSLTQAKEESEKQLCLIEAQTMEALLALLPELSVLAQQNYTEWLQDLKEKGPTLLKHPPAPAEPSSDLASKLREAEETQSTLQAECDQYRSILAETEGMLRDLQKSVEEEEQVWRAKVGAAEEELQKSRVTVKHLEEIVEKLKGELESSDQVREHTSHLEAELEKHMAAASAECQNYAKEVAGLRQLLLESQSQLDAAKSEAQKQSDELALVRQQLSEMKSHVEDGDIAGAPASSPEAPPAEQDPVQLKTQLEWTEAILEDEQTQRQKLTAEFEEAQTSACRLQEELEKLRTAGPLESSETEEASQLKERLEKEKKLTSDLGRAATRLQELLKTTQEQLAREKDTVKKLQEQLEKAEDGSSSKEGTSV

Compound: Cc1cc(Nc2cc(CN3CCOCC3)c3nc(C)c(Cc4ccc(Cl)cc4F)n3n2)n[nH]1 [gandotinib]
Assay: log2 fold change, soluble protein after heating vs DMSO (PISA); higher = thermal stabilisation; K562 cells, 10 uM, 30 min; active = over 0.2 and 3.5 SD of the protein, either way, in both replicates (recomputed)
Summary of the method: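 Quantification of soluble protein used TMTpro 16plex LC-MS/MS, with channel sums equalised. Samples were the supernatant after 21,000xg for 90 min of pooled aliquots from K562 cells (2×10^6 cells/mL) treated with 10 μM compound for 30 min, heated for 3 min over 48°C-58°C, and extracted in PBS with 0.5% NP-40 at 4°C. Values, from duplicates, describe thermal stability against control samples on a log2 fold-change scale.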

log2 fold change, inactive:
RPL9 (UniProt P32969) 0.283
RNH1 (UniProt P13489) -0.089
RPL24 (UniProt P83731) 0.275
RPS17 (UniProt P08708) 0.133
RPL17 isoform 3 (UniProt P18621) 0.569
RPN1 (UniProt P04843) -0.039
RPP30 isoform 2 (UniProt P78346) 0.123
RPL15 (UniProt P61313) 0.479
RO60 (UniProt P10155) 0.029
RRM2B isoform 6 (UniProt Q7LG56) -0.124
RP2 (UniProt O75695) -0.119
RPP40 (UniProt O75818) -0.044
RPL36 (UniProt Q9Y3U8) 0.45
RPL11 (UniProt P62913) 0.528
RPL13 (UniProt P26373) 0.599
RNF25 (UniProt Q96BH1) -0.01
RPL8 (UniProt P62917) 0.489
RPS27 (UniProt P42677) 0.067
RPS19BP1 (UniProt Q86WX3) 0.232
RPL35 (UniProt P42766) 0.409
RPS10 (UniProt P46783) 0.173
RRBP1 (UniProt Q9P2E9) 0.302
RPL22 (UniProt P35268) 0.213

Two records picked at random from those above, as already listed:
log2 fold change, inactive:
RPN1 (UniProt P04843) -0.039
RPL35 (UniProt P42766) 0.409
